No constants are given. Whether binding was seen depends on the method and setting. Binding seen in cells or lysates may run through a third protein. Some results given as binding are weak or reduced against the parent protein; the word gives no strength.
Molecular target: NLRC5 (UniProt Q86WI3)
Assay: co-IP; antibodies (4 µg) or IgG controls on mixed Dynabeads A and G; sonicated NP40 lysates of NCI-H446 and NCI-H69 cells; overnight at 4 °C; five washes with NP40 buffer; western blot

Amino acid sequences for entries named in this document (tags omitted).
UniProt Q86WI3: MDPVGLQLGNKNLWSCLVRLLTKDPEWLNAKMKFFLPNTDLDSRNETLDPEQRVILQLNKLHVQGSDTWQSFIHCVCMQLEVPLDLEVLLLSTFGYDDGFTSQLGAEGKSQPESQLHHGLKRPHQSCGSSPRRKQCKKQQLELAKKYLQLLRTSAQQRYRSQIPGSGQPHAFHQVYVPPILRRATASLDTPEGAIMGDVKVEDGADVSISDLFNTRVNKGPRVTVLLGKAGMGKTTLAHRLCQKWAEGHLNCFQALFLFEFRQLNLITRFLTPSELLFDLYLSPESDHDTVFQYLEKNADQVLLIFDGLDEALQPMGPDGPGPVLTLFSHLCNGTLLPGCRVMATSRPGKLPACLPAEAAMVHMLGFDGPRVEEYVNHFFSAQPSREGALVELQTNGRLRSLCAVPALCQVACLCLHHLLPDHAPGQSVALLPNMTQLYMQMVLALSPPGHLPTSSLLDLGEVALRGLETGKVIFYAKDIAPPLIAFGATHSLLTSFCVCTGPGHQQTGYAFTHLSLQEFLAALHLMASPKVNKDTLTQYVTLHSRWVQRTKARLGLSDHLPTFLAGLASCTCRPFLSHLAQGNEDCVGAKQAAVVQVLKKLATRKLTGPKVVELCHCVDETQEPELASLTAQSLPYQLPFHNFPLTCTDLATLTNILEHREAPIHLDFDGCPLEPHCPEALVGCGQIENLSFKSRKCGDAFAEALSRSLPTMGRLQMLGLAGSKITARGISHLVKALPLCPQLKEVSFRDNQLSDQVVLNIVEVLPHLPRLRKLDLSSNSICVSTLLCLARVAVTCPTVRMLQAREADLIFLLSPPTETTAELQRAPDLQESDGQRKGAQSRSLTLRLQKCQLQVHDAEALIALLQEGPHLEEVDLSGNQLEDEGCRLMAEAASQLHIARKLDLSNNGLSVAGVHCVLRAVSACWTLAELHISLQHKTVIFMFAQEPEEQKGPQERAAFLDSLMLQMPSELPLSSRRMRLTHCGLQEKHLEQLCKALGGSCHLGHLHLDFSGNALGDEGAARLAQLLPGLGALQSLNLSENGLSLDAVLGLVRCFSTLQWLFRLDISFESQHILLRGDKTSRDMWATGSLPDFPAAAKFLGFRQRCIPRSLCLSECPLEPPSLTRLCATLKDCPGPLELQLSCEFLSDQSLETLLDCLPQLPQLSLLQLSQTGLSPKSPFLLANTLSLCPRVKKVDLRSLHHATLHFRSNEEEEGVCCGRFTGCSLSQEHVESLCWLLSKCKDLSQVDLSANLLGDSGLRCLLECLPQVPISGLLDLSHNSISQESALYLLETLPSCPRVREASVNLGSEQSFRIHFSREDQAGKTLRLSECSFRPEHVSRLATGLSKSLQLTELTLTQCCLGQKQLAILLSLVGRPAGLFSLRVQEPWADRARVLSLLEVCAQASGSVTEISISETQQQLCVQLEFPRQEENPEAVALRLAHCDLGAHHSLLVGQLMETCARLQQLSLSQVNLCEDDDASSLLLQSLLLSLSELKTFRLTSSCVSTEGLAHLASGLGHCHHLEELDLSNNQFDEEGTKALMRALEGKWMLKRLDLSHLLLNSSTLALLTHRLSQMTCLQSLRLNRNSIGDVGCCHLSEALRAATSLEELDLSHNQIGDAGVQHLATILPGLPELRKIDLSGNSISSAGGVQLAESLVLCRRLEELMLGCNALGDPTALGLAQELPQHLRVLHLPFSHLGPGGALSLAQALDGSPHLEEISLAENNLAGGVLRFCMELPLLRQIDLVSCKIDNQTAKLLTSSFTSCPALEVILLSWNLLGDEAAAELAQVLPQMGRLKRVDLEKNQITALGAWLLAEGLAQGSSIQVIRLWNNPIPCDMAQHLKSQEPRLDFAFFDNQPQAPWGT
UniProt Q01628: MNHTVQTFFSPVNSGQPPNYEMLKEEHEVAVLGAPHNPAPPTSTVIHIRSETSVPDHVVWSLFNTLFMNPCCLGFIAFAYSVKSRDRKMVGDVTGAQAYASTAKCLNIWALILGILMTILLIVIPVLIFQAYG

**Q.** For “interferon-induced transmembrane protein 3 (from UniProt Q01628 1-133)”, which binding is on record?
**A.** binds
